# Patent US5055448A (Medical College of Ohio, priority 1987, dated 1991)
# Columns and labels:
# [1] = general procedure: Boc solid-phase peptide synthesis; Chloromethylated resin (Bio-Rad Bio-Beads SX-1); p-nitrophenyl esters; dicyclohexyl carbodiimide/N-hydroxybenzotriazole in soluti; settings: for isolated yield / crude mass / isolated mass / crude yield: whole synthesis
# peptide synthesis = settings: for cyclisation yield: cyclisation step
substance,measurement,setting,value
PEPTIDE1{[Aaa].[D-Tyr(Et)].F.V.N.[Abu].P.R.[Eda]}$$$$V2.0,step yield,[1]; late stage modification step,53.5%
Aaa-D-Tyr(Et)-Phe-Val-Asn-Abu-Pro-Arg(Tos)-NHCH2 CH2 NH2,isolated yield,[1],69.7%
same,crude mass,[1]; scale about 0.3 mmol,290 mg
PEPTIDE1{[Aaa].[D-Tyr(Et)].F.V.N.[Abu].P.R.A.[am]}$$$$V2.0,step yield,[1]; late stage modification step,82%
PEPTIDE1{[Pa].[D-Tyr(Et)].F.V.N.[Abu].P.R.R.[am]}$$$$V2.0,step yield,[1]; late stage modification step,73.9%
PEPTIDE1{[Aaa].[D-Tyr(Et)].F.V.N.[Abu].P.R.[am]}$$$$V2.0,step yield,[1]; late stage modification step,36%
"beta-(S-Benzylmercapto)-beta,beta-cyclopentamethylenepropionyl-Tyr(Bzl)-Phe-Gln-Asn-Cys(Bzl)-Pro-Arg(Tos)-GlyNH2",isolated yield,"[1]; based on initial Gly content on the resin, scale 0.5 mmol",62.4%
same,crude mass,[1]; scale 0.5 mmol,723 mg
same,isolated mass,[1]; scale 0.5 mmol,488 mg
"d(CH2)5 [Tyr(Me)^2, GlyNHBu-n^9 ]AVP",cyclisation yield,peptide synthesis,48.3%
Pa-D-Tyr(Et)-Phe-Val-Asn-Abu-Pro-Arg(Tos)-Arg-(Tos)NH2,crude yield,[1],55.6%
"d(CH2)5 [D-Tyr(Et)^2, Val^4, GlyNHMe^9 ]AVP",cyclisation yield,peptide synthesis,38.7%
same,isolated yield,peptide synthesis; whole synthesis,69.3%
Aaa-D-Tyr(Et)-Phe-Val-Asn-Abu-Pro-Arg(Tos)NH2,crude yield,[1],59.3%
same,crude mass,[1]; scale about 0.3 mmol,220 mg
Aaa-D-Tyr(Et)-Phe-Val-Asn-Orn(Tos)-Pro-Arg(Tos)NH2,crude mass,[1]; scale 0.3 mmol,248 mg
same,crude yield,[1]; scale 0.3 mmol,58.2%
"beta-(S-Benzylmercapto)-beta,beta-cyclopentamethylenepropionyl-Tyr(Me)-Phe- Gln-Asn-Cys(Bzl)-Pro-Arg(Tos)-GlyNH2",step yield,[1]; coupling step,77.3%
same,isolated yield,"[1]; based upon initial glycine content of the resin, scale 0.4 mmol",50.7%
same,crude mass,[1]; scale 0.4 mmol,410 mg
same,isolated mass,[1]; scale 0.4 mmol,302 mg

# For part of these data: Some peptides are written in HELM: one residue between dots, names in brackets for other building blocks, links after the first $.
